Some of the results follow.
compound: C1=CC=C2C(=C1)C3=NNC4=CC=CC(=C43)C2=O; assay: log2 fold change, soluble protein after heating vs DMSO (PISA); higher = thermal stabilisation; K562 cells, 10 uM, 30 min; active = over 0.2 and 3.5 SD of the protein, either way, in both replicates (recomputed)
Method in brief: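 Values are thermal stability changes relative to control samples and are taken from duplicates. They are stated as log2 fold changes. Before quantification by TMTpro 16plex LC-MS/MS with equalised channel sums, K562 cells at 2×10^6 cells/mL were treated with 10 μM compound for 30 min, heated in aliquots for 3 min across 48°C-58°C, pooled, extracted in PBS with 0.5% NP-40 at 4°C, and centrifuged at 21,000xg for 90 min to give the soluble supernatant.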

Protein sequences, listed by entry. Tags and fused reporters are not part of them. Lines headed by an entry give the natural chain unless they say otherwise; changes in a name come on top.
UniProt Q8IZN3: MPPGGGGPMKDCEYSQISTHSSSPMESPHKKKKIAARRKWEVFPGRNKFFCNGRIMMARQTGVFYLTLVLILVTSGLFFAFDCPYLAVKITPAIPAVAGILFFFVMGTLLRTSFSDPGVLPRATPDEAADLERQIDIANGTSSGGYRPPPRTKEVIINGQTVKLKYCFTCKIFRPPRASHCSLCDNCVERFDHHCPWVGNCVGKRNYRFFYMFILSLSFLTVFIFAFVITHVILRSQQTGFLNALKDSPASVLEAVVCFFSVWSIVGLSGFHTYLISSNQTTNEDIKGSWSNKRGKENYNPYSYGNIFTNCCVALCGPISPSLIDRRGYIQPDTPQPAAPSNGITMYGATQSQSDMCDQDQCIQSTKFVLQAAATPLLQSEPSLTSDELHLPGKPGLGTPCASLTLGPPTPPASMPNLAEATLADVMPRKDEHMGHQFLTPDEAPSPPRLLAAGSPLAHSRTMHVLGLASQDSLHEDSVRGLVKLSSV
UniProt Q86VM9: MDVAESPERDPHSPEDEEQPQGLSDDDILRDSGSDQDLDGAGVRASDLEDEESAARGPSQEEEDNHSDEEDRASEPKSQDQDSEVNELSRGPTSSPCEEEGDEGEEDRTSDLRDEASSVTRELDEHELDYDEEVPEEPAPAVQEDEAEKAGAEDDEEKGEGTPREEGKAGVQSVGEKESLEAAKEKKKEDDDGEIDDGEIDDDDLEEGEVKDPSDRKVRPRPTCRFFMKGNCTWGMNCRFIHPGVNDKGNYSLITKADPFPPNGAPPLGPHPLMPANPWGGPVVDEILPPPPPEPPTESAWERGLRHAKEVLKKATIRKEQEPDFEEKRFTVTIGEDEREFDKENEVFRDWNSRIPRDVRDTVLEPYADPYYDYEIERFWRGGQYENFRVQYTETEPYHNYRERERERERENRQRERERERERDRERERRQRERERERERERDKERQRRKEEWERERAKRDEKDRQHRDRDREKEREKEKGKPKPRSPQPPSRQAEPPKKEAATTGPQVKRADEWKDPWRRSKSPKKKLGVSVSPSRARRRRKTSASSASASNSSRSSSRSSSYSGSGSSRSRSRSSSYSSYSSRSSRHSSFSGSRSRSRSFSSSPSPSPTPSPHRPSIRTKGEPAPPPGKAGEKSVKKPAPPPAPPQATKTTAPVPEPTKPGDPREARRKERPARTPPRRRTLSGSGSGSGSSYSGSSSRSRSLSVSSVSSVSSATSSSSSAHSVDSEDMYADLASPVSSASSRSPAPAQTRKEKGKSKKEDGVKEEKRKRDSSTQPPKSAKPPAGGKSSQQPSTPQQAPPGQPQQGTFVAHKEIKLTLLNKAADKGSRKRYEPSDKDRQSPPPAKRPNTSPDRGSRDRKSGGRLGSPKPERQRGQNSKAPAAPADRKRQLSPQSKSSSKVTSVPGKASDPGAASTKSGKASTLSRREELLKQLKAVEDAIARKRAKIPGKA
UniProt Q8N5P1: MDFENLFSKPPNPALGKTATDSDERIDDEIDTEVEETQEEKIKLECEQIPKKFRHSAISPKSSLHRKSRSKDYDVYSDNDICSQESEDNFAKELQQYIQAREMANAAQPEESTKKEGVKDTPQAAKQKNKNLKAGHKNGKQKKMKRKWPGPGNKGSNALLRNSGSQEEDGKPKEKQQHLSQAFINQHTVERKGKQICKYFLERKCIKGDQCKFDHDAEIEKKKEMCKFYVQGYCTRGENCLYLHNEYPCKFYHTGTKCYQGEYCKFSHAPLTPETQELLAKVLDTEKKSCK
UniProt A8MPS7: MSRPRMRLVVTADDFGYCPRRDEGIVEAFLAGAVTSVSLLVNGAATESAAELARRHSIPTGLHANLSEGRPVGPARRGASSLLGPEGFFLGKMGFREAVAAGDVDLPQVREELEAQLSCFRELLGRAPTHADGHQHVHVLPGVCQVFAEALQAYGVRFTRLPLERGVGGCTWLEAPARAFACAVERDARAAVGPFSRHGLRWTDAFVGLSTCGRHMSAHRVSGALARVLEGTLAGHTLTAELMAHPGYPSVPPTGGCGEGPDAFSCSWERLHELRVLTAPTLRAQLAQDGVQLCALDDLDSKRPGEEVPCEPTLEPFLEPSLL
UniProt Q9NUE0: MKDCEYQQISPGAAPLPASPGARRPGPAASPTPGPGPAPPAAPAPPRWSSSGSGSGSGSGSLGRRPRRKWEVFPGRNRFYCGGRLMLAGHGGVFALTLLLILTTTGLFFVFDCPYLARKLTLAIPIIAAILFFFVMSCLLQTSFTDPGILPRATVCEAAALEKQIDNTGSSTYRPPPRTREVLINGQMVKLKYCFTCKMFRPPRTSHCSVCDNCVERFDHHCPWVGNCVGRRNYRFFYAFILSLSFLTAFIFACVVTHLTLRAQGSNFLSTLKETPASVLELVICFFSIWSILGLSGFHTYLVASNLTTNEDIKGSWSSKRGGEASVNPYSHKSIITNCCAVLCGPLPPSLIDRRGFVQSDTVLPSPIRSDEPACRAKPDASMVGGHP
UniProt Q8IUH5: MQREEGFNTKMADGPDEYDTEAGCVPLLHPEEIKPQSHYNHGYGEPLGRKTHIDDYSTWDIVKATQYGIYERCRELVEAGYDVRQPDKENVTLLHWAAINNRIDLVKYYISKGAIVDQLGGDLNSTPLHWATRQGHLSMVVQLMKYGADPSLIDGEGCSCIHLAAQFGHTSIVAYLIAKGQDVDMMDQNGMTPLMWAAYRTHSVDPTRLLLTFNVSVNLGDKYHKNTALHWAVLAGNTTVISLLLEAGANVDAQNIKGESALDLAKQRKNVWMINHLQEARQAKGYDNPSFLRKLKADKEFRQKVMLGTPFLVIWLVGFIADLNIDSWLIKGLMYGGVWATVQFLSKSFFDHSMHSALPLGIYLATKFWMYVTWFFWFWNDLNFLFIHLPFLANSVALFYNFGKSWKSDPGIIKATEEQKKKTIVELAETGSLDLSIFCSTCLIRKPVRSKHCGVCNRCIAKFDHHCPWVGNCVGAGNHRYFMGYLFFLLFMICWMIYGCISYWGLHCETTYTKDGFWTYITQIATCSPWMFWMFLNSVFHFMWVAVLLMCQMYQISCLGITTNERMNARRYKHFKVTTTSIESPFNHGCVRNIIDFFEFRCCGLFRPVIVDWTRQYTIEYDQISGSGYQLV
UniProt Q6PJT7: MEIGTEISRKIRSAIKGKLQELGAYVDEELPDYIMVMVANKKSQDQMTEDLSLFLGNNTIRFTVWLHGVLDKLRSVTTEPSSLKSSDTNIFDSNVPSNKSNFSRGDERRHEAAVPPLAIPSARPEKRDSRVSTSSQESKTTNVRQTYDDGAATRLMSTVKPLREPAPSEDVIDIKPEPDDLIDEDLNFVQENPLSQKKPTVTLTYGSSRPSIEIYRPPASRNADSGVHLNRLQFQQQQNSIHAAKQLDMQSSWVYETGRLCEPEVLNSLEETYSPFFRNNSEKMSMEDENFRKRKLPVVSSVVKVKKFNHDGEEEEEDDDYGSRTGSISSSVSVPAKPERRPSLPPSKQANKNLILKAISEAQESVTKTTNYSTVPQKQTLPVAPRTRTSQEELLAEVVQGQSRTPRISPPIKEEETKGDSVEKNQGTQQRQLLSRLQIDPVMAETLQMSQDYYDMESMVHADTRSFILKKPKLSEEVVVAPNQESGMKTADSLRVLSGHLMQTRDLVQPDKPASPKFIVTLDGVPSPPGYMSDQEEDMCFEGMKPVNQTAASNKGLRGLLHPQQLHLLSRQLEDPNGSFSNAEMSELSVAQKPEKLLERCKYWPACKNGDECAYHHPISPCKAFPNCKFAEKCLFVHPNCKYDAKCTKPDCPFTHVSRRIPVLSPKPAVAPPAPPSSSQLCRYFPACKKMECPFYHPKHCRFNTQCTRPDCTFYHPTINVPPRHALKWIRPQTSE
UniProt Q9C0B5: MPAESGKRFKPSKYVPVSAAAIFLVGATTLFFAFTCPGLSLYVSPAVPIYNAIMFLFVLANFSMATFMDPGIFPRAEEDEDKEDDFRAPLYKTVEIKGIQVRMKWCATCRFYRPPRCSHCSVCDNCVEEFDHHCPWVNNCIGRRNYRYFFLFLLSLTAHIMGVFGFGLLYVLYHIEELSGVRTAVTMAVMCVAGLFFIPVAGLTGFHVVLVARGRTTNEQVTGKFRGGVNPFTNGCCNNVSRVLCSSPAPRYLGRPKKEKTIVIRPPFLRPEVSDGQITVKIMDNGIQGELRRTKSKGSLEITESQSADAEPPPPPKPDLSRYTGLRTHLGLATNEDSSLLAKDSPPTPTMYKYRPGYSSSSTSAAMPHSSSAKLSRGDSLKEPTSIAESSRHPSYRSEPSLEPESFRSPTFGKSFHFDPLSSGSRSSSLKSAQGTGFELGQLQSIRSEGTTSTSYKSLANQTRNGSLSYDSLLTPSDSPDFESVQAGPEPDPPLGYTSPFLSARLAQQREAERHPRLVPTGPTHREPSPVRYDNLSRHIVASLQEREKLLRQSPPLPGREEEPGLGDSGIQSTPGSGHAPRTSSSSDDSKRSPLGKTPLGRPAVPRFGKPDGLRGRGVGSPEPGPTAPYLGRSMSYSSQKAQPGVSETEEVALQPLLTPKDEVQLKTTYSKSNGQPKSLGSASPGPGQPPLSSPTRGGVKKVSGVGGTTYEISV
UniProt Q16600: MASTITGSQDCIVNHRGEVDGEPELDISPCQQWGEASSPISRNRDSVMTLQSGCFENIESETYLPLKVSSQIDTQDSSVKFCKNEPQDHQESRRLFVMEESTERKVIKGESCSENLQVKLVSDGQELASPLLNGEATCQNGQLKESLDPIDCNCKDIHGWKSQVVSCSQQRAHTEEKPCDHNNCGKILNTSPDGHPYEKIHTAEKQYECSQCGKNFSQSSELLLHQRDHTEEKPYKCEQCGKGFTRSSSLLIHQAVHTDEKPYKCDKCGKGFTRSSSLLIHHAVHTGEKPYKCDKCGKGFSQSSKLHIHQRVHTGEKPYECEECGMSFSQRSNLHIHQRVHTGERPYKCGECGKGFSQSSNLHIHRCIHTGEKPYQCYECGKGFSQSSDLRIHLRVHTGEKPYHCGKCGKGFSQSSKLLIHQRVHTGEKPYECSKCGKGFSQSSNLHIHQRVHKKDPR
UniProt Q8WU90: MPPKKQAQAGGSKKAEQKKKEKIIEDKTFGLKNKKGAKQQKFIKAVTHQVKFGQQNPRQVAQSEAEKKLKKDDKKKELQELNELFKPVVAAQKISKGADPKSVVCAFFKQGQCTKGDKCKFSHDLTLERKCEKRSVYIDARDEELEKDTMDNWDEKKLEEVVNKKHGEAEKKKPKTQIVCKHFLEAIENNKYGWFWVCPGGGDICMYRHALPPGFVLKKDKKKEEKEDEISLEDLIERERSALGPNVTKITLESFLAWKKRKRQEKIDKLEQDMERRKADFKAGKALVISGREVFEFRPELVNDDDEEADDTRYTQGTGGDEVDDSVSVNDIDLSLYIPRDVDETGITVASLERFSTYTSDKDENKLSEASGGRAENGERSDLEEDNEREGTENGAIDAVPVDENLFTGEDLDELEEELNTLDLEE
UniProt Q96GY0: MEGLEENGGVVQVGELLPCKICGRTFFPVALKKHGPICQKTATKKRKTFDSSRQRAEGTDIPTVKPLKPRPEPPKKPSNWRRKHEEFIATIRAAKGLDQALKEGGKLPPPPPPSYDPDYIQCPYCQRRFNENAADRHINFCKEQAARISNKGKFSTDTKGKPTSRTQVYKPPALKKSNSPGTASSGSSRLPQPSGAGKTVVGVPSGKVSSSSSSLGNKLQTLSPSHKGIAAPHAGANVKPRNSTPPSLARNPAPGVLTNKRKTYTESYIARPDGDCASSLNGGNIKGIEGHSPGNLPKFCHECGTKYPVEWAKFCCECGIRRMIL
UniProt P63104: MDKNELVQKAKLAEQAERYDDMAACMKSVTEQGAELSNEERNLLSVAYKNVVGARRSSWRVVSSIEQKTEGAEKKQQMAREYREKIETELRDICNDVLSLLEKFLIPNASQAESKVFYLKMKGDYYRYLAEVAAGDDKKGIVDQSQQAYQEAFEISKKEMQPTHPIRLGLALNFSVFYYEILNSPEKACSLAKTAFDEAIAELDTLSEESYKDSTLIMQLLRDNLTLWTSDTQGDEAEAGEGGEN
UniProt Q86WB0: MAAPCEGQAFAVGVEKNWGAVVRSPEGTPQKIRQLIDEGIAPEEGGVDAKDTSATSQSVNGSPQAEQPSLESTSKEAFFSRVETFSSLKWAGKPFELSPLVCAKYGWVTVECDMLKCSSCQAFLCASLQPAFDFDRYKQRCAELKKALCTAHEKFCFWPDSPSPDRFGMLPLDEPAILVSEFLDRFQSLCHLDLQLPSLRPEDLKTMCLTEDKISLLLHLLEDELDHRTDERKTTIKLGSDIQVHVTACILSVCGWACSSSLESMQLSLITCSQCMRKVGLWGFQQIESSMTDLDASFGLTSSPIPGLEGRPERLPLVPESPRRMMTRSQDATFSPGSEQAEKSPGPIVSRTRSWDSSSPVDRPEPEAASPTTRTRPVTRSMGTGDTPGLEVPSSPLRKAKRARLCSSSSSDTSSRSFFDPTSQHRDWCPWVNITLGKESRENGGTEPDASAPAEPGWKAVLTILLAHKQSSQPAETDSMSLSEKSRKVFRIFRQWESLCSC

log2 fold change, inactive:
ZDHHC14 (UniProt Q8IZN3) -0.166, ZC3H18 (UniProt Q86VM9) -0.211, ZC3H8 (UniProt Q8N5P1) -0.001, YIPF4 (UniProt Q9BSR8) 0.033, YDJC (UniProt A8MPS7) 0.027, ZMPSTE24 (UniProt O75844) -0.005, ZFYVE27 isoform 2 (UniProt Q5T4F4) 0.027, ZBTB43 (UniProt O43298) -0.161, ZMIZ2 (UniProt Q8NF64) -0.054, ZDHHC18 (UniProt Q9NUE0) -0.087, ZER1 (UniProt Q7Z7L7) -0.009, YY1 (UniProt P25490) -0.07, YWHAE (UniProt P62258) -0.016, YES1 (UniProt P07947) -0.153, ZBTB8OS (UniProt Q8IWT0) 0.017, YJU2 (UniProt Q9BW85) 0.038, YLPM1 (UniProt P49750) 0.02, YBX3 (UniProt P16989) -0.023, ZFYVE19 (UniProt Q96K21) -0.076, YARS2 (UniProt Q9Y2Z4) 0.145, XPO5 (UniProt Q9HAV4) -0.019, ZDHHC17 (UniProt Q8IUH5) -0.021, ZC3H14 (UniProt Q6PJT7) -0.049, YKT6 (UniProt O15498) -0.012, ZDHHC5 (UniProt Q9C0B5) -0.054, ZNF239 (UniProt Q16600) 0.004, ZC3H15 (UniProt Q8WU90) -0.001, YAE1 (UniProt Q9NRH1) -0.048, ZNF24 (UniProt P17028) -0.049, ZFAND6 (UniProt Q6FIF0) -0.055, ZC2HC1A (UniProt Q96GY0) -0.057, YWHAZ (UniProt P63104) 0.045, ZCCHC3 (UniProt Q9NUD5) -0.088, XPO1 (UniProt O14980) -0.036, YEATS4 (UniProt O95619) 0.025, ZC3HC1 (UniProt Q86WB0) -0.032, XXYLT1 (UniProt Q8NBI6) 0.003, ZDHHC3 isoform 2 (UniProt Q9NYG2) -0.02, ZBTB21 (UniProt Q9ULJ3) 0.006

— the supplement of paper PMC10849652
